# Earlier results in US20100160324A1, “PYRAZOLE DERIVATIVES AS THAT MODULATE THE ACTIVITY OF CDK, GSK AND AURORA KINASES” (ASTEX THERAPEUTICS LIMITED, priority 2004, published 2010).
# For at least one compound, name, drawing or mass did not settle the structure.
# Test system: symptomatic CLL patients
# Details: initial therapy, compared with alkylator-based therapies (3%); cited from earlier work
smiles,measurement,value
Nc1nc(F)nc2c1ncn2[C@@H]1O[C@H](CO)[C@@H](O)[C@@H]1O [fludarabine],rate of complete responses,27%
